At least one structure is not confirmed: it was looked up by name or label, or the drawing left a doubt.
Columns and labels:
[1] = test system: mouse pre-osteoblastic cell MC3T3-E1; assay: Alkaline phosphatase activity in mouse pre-osteoblastic cells; type: cell-based; conditions: 5, 10 or 20 μM, six or nine
Description: To increase number of osteoblastic cells having calcium-deposition activity is important for increasing bone mass. […] The activity is at low level in pre-osteoblastic cells and at high level in osteoblastic cells differentiated form the pre-osteoblastic cells. […] Since final ethanol concentration in the medium is 0.2% (v/v), α-MEM medium containing 0.2% (v/v) ethanol was prepared as a negative control. The cells were inoculated for eight days as changing the medium therewith to fresh medium with or without each sample per three days. Alkaline phosphatase activity was measured using “Alkaline Phospha B-Test Wako” (commercialized by Wako Pure Chemical Industries, Osaka, Japan) according with Kajii et al (Archives of Oral Biology, Vol. 44, pp. 233-241, (1999)). Briefly, to the above described mouse pre-osteoblastic cells washed with 1 ml of 0.25 M sucrose solution three times after removing the medium were added 0.45 ml of 50 mM carbonate salt buffer (pH9.8) containing 1 mM magnesium chloride and 50 mM sucrose and 0.05 ml of 3.4 mM disodium p-nitrophenyl phosphate in due course. The mixture was incubated at 25° C. for five minutes and admixed with 1.5 ml of 0.6N sodium hydroxide as a reaction terminator. Absorbance 405 nm of p-nitrophenol generated by alkaline phosphatase in the resulting mixture was measured, and the obtained values were used as values as alkaline phosphatase activity. […]

[2] = test system: mouse pre-osteoblastic cell MC3T3-E1; assay: Calcium deposition amount by Calcium C Test Wako; type: cell-based
Description: Other flavonoid compounds than kaempferol or hesperetin were investigated where they have the same effect or not. […] Alkaline phosphatase activity was measured by the method of Experiment 1. Calcium deposition was measured by usual method using “Calcium C Test Wako” (commercialized by Wako Pure Chemical Industries, Osaka, Japan), briefly, cultured cells were washed with 1 ml of Dulbecco phosphate buffer saline three times after removing the medium. […] Calcium amount per one hole of the plate was calculated by measuring absorbance 570 nm of the resultants and standardizing with a standard calcium solution. […]
The enhancement of calcium deposition between kaempferol and ipripfavone were compared. […] Calcium deposition amount was measured by usual method using “Calcium C Test Wako” (commercialized by Wako Pure Chemical Industries, Osaka, Japan); briefly, cultured cells were washed with 1 ml of Dulbecco phosphate buffer saline three times after removing the medium. […] To 5 μl of the resolving solution were added 0.5 ml of 0.88M monoethanolamine buffer (pH11) and 0.05 ml of 0.63 mM o-cresolphthalein complexone solution (binding to calcium ion to form chelate complex) containing 69 mM 8-quinolinol and mixed, Calcium amount per one hole of the plate was calculated by measuring absorbance 570 nm of the resultants and standardizing with a standard calcium solution. […]

Q: `O=c1c(O)c(-c2ccc(O)cc2)oc2cc(O)cc(O)c12` [Kaempferol] was tested. Which “enhancement of alkaline phosphatase activity, daily course (FIG. 1)” value ([1]; culture day three, relative to ethanol control) did it give?
A: delayed enhancement of alkaline phosphatase activity at sixth day

Q: And the “enhancement of alkaline phosphatase activity compared with ipriflavone (FIG. 1)” value ([1]; MC3T3-E1, day three)?
A: equally enhances

Q: What about the “enhancing calcium deposition in combination with ipriflavone versus single use (FIGS. 3 and 4)” value ([2]; 5, 10 or 20 μM each, five days culture) of the same compound?
A: a synergy effect was confirmed

Q: And the “enhancement of calcium deposition compared with ipriflavone (FIG. 2)” value ([2]; 5, 10 or 20 μM, day three, six or nine)?
A: higher enhancement of calcium deposition than ipriflavone

Reference: patent US8778882B2, “Agent for strengthening calcium containing tissue and use thereof” (Hayashibara Co., Ltd., priority 2002, dated 2014)
